Hit rate of the full screen: of about 360,000 compounds, about 7,500 (2.1%) were called active. Inconclusive means that the source gave no clear call. Such entries were picked first, then a sample of the others. Calls come from the whole dose curve; as a rule, active = well fitted inhibition curve with a large enough effect; inconclusive = small, poorly fitted or top-dose-only effect, or effect the other way; inactive = flat fitted curve, though single readings scatter. A potency beside an inconclusive call is a rough fit, not a confirmed value.
assay: Nrf2 qHTS screen for inhibitors; conditions: A549 ARE-Fluc reporter, luciferase luminescence, 18-24 h; series mostly up to 46 µM; note: nearly all actives have a fitted effect of over 60% in size
Procedure, shortened: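 Reporter: ARE-Fluc in A549. Exposure: 18-24 h, 37 °C, 5% CO2, 5% FBS OPTI-MEM. Readouts: fluorescent cytotoxicity (CellTiter-Fluor), then luminescent Nrf2 signal after BugLite.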
Potency is the fitted concentration of half-maximal effect.

| Structure (SMILES) | Potency |
| --- | --- |
| COc1ccc(C(=O)/C=C/c2cc(OC)c(O)c(OC)c2)c(F)c1 | inactive |
| COc1cccc(N2CCN(C(=O)Cn3ncc4c(=O)oc5ccccc5c43)CC2)c1 | inactive |
| O=C(N/N=C/c1cccc2ccccc12)c1cccs1 | inconclusive: 6.51 µM [activator, partial curve] |
| CCC(C(=O)NC1CCCC1)N(C(=O)Cn1nnc(-c2ccc(C)o2)n1)c1ccc(OC)cc1 (stereo not given) | inactive |
| COc1cc(NC(=O)c2ccccc2)c(OC)cc1NC(=O)CN1CCOCC1 | inconclusive: 29.1 µM [falling, single point] |
| O=C(NCC1CCCO1)c1cc2c([nH]c3ccccc32)c(-c2ccc(F)cc2)n1 (stereo not given) | inconclusive: 18.4 µM [falling, single point] |
| CCOc1cc(/C=C2/NC(=S)NC2=O)ccc1OCc1ccc([N+](=O)[O-])cc1 | inconclusive: 20.6 µM [falling, single point] |
| CCS(=O)(=O)c1ccc2oc(SCC(=O)NC34CC5CC(CC(C5)C3)C4)nc2c1 | inconclusive: 32.6 µM [falling, single point] |
| O=C(COC(=O)c1ccc(O)cc1)c1ccc2c(c1)OCCO2 | inactive |
| C=CCOC(=O)C1=C(C)NC(C)=C(C(=O)OCC=C)C1/C=C/c1ccccc1 | inconclusive: 23.1 µM [falling, partial curve, poor fit] |
| COc1ccc(Cn2c(N)c(S(=O)(=O)c3cccs3)c3nc4ccccc4nc32)cc1 | inconclusive: 25.9 µM [falling, partial curve, poor fit] |
| C/C(=N\NC(=S)NCc1ccccc1)c1ccc(Cl)s1 | inconclusive: 23.1 µM [activator, partial curve] |
| COc1ccc(-c2n[nH]c(C)c2-c2ccc(Cl)cc2)c(O)c1OC | inactive |
| NNC(=O)c1ccc(COc2ccc3ccccc3c2)o1 | inconclusive: 16.4 µM [activator, partial curve, poor fit] |
| Cc1cccc(-c2noc(-c3cc(-c4ccc(F)cc4)n[nH]3)n2)c1 | inconclusive: 29.1 µM [activator, single point] |
| COc1ccc(/C=N/NC(=O)CCCC(=O)NC2CCCCC2)cc1 | inconclusive: 4.61 µM [falling, full curve, poor fit] |
| C/C(=N\NC(=O)c1cccc(Br)c1)c1ccc(Br)cc1 | inconclusive: 16.4 µM [falling, partial curve, poor fit] |
| CCc1ccc(NC(=O)CSc2nc(NS(=O)(=O)c3ccccc3)cc(=O)[nH]2)cc1 | inconclusive: 11.6 µM [activator, partial curve, poor fit] |
| COCCN(C(=O)/C=C/c1ccccc1)c1nnc(-c2cccnc2)s1 | inconclusive: 5.8 µM [falling, partial curve, poor fit] |
| CC(=O)n1cc(N(C(=O)CCl)c2ccc([N+](=O)[O-])cc2)c2ccccc21 | inactive |

A section from the list above, as a working copy:

| Structure (SMILES) | Potency |
| --- | --- |
| CCC(C(=O)NC1CCCC1)N(C(=O)Cn1nnc(-c2ccc(C)o2)n1)c1ccc(OC)cc1 (stereo not given) | inactive |
| COc1cc(NC(=O)c2ccccc2)c(OC)cc1NC(=O)CN1CCOCC1 | inconclusive: 29.1 µM [falling, single point] |
| O=C(NCC1CCCO1)c1cc2c([nH]c3ccccc32)c(-c2ccc(F)cc2)n1 (stereo not given) | inconclusive: 18.4 µM [falling, single point] |
| CCOc1cc(/C=C2/NC(=S)NC2=O)ccc1OCc1ccc([N+](=O)[O-])cc1 | inconclusive: 20.6 µM [falling, single point] |
| CCS(=O)(=O)c1ccc2oc(SCC(=O)NC34CC5CC(CC(C5)C3)C4)nc2c1 | inconclusive: 32.6 µM [falling, single point] |
| O=C(COC(=O)c1ccc(O)cc1)c1ccc2c(c1)OCCO2 | inactive |
| C=CCOC(=O)C1=C(C)NC(C)=C(C(=O)OCC=C)C1/C=C/c1ccccc1 | inconclusive: 23.1 µM [falling, partial curve, poor fit] |
| COc1ccc(Cn2c(N)c(S(=O)(=O)c3cccs3)c3nc4ccccc4nc32)cc1 | inconclusive: 25.9 µM [falling, partial curve, poor fit] |
| C/C(=N\NC(=S)NCc1ccccc1)c1ccc(Cl)s1 | inconclusive: 23.1 µM [activator, partial curve] |

Following part.

| Structure (SMILES) | Potency |
| --- | --- |
| COc1cc(OC)cc(C(=O)Nc2nc(-c3nnn(-c4ccc(F)c(Cl)c4)c3C)ns2)c1 | inconclusive: 29.1 µM [falling, single point] |
| COCCn1c(SCC(=O)Nc2ccc(OC)c(S(N)(=O)=O)c2)nc2ccccc2c1=O | inconclusive: 20.6 µM [falling, single point] |
| COc1ccc(S(=O)(=O)n2nc(-c3cc(OC)c(OC)c(OC)c3)cc2N)cc1OC | inconclusive: 13 µM [falling, partial curve, poor fit] |
| CN=C1S/C(=C\c2cn(CC(=O)OC)c3ccccc23)C(=O)N1C | inconclusive: 1.3 µM [activator, full curve, poor fit] |
| Cc1nc2ccccc2c(=O)n1/N=C/c1ccccc1O | inconclusive: 20.6 µM [activator, single point] |
| O=C(CSc1nccn1Cc1ccccc1)Nc1nccs1 | inconclusive: 10.3 µM [activator, partial curve, poor fit] |
| COc1ccc(NC(=O)N(C)C[C@H]2Oc3c(NC(=O)c4nc5ccccc5s4)cccc3C(=O)N([C@@H](C)CO)C[C@H]2C)cc1 | inconclusive: 29.1 µM [falling, single point] |
| CCOc1ccc(NS(=O)(=O)c2ccc(C(=O)N3CCCCCC3)cc2)cc1 | active: 23.1 µM |
| CCn1cc(C(=O)NC2CCCCCC2)c2cc(OC)c(OC)cc2c1=O | inactive |
| CC1Sc2ccc(S(=O)(=O)NCCc3ccc(Cl)cc3)cc2NC1=O (stereo not given) | inconclusive: 29.1 µM [falling, single point] |
| CCOc1ccc(CCNC(=O)Cc2ccc(NC(=O)N3CCSc4ncccc43)cc2)cc1 | inconclusive: 29.1 µM [falling, single point] |
| CCOc1ccc(-c2ccc(/C=C3/C(=N)N4C=CSC4=NC3=O)o2)c([N+](=O)[O-])c1 | inconclusive: 32.6 µM [falling, single point] |
| COc1cccc(C2c3c(ncn(CCCN4CCOCC4)c3=N)Oc3ccc4ccccc4c32)c1 (stereo not given) | inactive |
| CCOc1ccc(-c2cc(CCCC(=O)NCCc3ccc(OCC)c(OCC)c3)no2)cc1 | inconclusive: 7.31 µM [falling, partial curve, poor fit] |
| Cc1ccc(-n2nnnc2-c2cnn(-c3cccc(F)c3)c2C(F)(F)F)cc1 | inconclusive: 7.31 µM [falling, partial curve] |
| Oc1c(N=NC(=S)Nc2ccccc2F)c2ccccc2n1Cc1ccccc1Cl | inconclusive: 11.6 µM [falling, partial curve, poor fit] |
| CCOC(=O)c1c(C)[nH]c(C)c1C(=O)COC(=O)c1cccnc1Cl | inconclusive: 0.13 µM [activator, full curve, poor fit] |
| CCOc1cc(/C=C(/C#N)C(=O)Nc2ccc(OC)cc2)ccc1OCc1ccc(C(=O)O)cc1 | inconclusive: 23.1 µM [falling, single point] |
| Cc1sc(NC(=O)C2=COCCO2)c(C(N)=O)c1C | inconclusive: 11.6 µM [activator, partial curve, poor fit] |
| CCOc1ccc(CC(=O)OCn2nnc3ccccc3c2=O)cc1 | inconclusive: 9.2 µM [falling, partial curve] |

Reference: PubChem BioAssay AID504444 (National Center for Advancing Translational Sciences (NCATS), 2011)
